Measured values taken from article PMC5435687 (Scientific Reports, 2017).

System: SH-SY5Y cells
Assay: Co-localisation of Aβ with LysoTracker Deep Red (confocal, JACoP, Mander's coefficient)
Type: cell-based, human
Details: 500 nM peptide 24 h, washed, additional 5 h, mean ± SD of 21 images, ~5 cells each, three samples

Aβ(1–40): Synthetic 40 residue amyloid-β peptide conjugated to HiLyte Fluor HF488 (or HF647) at the N-terminus, from Anaspec
fraction of Aβ colocalising with Lysotracker Deep Red stained compartments (Mander's coefficient): 90.8 ± 3.6% and > 90%

“And” between values parts separate entries of the source, which are not always exact repeats. Equal values may be shown once.
